This experiment has as its target GluA4 ATD (amino-terminal domain of human GluA4), recombinant (human) (UniProt P48058). The experiment can be described thus: SPR; competition; Biacore T200; GluA4 ATD (~800 RU) amine-coupled on CM5, 500 nM NP2 PTX mixed with 0-1000 nM VHH N1 as analyte; 10 mM Hepes-NaOH pH 7.4, 150 mM NaCl, 3 mM CaCl2, 0.005% Tween-20; both purified. (In general: In SPR one partner is held on a chip, and binding of the other changes the refractive index at the surface.)

The chains behind the UniProt entries cited, without tags or fusion partners. Where a name states a change or a piece, a line headed by the entry shows the natural chain unless it says otherwise.
UniProt P48058: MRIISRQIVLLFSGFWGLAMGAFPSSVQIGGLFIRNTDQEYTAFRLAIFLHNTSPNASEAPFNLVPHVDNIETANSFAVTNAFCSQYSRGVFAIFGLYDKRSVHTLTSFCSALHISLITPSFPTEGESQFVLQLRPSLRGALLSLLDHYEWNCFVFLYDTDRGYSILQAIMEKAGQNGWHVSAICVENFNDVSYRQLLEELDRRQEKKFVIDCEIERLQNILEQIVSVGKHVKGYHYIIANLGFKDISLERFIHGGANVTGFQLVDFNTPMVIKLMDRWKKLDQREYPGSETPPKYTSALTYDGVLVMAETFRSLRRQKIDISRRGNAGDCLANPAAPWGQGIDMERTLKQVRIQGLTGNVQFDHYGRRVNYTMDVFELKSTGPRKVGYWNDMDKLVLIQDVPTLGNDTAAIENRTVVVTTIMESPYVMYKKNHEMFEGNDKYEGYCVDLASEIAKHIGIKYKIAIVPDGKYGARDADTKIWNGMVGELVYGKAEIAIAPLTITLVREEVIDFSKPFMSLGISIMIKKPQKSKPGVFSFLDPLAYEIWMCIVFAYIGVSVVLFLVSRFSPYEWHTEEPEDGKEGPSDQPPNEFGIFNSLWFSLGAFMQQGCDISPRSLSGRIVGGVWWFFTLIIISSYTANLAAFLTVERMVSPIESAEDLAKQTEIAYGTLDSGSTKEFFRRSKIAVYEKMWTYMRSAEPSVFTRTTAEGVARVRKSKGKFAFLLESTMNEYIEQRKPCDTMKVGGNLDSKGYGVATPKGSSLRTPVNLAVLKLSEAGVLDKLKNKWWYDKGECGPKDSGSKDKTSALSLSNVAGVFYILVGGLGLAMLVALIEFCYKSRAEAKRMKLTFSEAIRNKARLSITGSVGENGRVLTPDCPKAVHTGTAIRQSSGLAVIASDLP

These are yes or no findings as the source states them, for the method shown. Binding calls can cover weak binding; strength is not graded here.

B1: NP2 PTX (pentraxin domain of neuronal pentraxin 2) (domain or fragment, human)
chain: DAFKVSLPLRTNYLYGKIKKTLPELYAFTICLWLRSSASPGIGTPFSYAVPGQANEIVLIEWGNNPIELLINDKVAQLPLFVSDGKWHHICVTWTTRDGMWEAFQDGEKLGTGENLAPWHPIKPGGVLILGQEQDTVGGRFDATQAFVGELSQFNIWDRVLRAQEIVNIANCSTNMPGNIIPWVDNNVDVFGGASKWPVETCEERLLDL
notes: neuronal pentraxin 2 (NP2, Nptx2), human, pentraxin (PTX) domain; also called NP2 PTX WT; PTX domain of NP2; source: Expi293 cells, secreted, purified (Ni-NTA, SEC)
B1: the binding result is recorded as “binds”.

The values above are taken from publication PMC12799932, “Development of a VHH that inhibits the binding of neuronal pentraxin 2 to a postsynaptic glutamate receptor, AMPAR” (The Journal of Biological Chemistry, 2025).
